Results are given in words; binding and its absence hold for the method and conditions named. Binding seen in cells or lysates may run through a third protein. Some binding calls cover weakened binding; strength is not graded here.

Amino acid sequences for entries named in this document (tags omitted).
UniProt Q9H1Y0: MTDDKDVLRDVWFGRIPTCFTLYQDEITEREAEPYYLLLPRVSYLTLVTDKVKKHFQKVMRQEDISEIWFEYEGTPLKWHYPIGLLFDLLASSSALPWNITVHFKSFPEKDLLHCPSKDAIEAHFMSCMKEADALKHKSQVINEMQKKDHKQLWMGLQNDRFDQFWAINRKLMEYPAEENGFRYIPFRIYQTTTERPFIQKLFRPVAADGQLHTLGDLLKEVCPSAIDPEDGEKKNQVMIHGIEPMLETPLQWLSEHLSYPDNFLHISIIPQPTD
UniProt Q92609: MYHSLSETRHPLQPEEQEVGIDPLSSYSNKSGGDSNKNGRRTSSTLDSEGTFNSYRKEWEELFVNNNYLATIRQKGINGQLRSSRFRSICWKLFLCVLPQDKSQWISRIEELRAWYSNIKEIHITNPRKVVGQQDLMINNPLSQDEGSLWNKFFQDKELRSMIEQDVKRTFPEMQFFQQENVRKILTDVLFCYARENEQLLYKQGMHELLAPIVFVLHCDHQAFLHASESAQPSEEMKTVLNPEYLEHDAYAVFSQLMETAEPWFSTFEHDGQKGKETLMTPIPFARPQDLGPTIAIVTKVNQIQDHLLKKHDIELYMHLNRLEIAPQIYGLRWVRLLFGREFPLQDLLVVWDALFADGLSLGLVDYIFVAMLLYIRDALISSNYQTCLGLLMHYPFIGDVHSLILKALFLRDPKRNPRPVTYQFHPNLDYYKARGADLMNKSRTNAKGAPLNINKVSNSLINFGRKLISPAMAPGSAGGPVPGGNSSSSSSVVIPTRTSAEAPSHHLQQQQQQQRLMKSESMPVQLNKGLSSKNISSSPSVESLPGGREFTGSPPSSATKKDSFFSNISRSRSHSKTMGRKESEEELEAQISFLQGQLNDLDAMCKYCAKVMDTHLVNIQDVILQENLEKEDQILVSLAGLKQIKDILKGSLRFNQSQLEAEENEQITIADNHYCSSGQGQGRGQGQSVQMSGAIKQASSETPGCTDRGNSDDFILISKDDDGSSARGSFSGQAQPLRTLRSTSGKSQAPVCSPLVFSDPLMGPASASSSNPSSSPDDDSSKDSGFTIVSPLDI

In one test the target is GFP-LC3 (UniProt Q9H492). As to the kind of experiment: co-IP; co-IP with GFP-LC3 in Huh7 cells treated with or without Monensin (100 µM), LLOMe (100 µM) and Bafilomycin A1 (100 nM) for 45 min.
In test [1] the target is endogenous ATG5 (human (endogenous in HeLa)) (UniProt Q9H1Y0). Nature of the test: co-IP; endogenous ATG5 and endogenous retromer subunits, HeLa cells with or without 2 mM LLOMe for 30 min; NP-40 buffer, Dynabeads, immunoblot.

On to TBC1D5 (from UniProt Q92609 1-795), for which the binding result in the test with GFP-LC3 was “binds”.

Take VPS26A (from UniProt O75436 1-327): the binding entry in test [1] is listed as “binds”.

The record behind these values is PMC11706607.
